Source: doi:10.1101/451823
Where two headings read alike, the source gives them in different places. No constants are given. Whether binding was seen depends on the method and setting. In cells and extracts the contact can be indirect. A yes stands for co-enrichment or nearness to the bait. Other partners may have been found.

The chains behind the UniProt entries cited, without tags or fusion partners.
UniProt O14744: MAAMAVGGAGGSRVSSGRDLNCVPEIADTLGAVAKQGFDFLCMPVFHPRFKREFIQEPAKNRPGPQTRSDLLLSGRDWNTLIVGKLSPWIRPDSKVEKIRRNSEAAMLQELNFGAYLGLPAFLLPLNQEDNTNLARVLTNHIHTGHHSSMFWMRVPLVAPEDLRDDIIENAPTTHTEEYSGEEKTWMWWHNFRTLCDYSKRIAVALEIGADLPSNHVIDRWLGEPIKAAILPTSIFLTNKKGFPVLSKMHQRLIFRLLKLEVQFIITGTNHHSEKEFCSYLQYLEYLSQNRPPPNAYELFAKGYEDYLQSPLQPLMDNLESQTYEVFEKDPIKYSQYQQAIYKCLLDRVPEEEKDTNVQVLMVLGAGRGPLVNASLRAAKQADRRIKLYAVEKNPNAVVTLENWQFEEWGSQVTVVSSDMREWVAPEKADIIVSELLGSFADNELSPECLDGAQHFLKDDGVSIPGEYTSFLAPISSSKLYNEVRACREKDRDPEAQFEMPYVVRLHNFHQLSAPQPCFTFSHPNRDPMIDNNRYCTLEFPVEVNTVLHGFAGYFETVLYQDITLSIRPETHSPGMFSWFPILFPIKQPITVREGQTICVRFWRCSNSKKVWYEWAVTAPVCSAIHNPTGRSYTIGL
UniProt P17844: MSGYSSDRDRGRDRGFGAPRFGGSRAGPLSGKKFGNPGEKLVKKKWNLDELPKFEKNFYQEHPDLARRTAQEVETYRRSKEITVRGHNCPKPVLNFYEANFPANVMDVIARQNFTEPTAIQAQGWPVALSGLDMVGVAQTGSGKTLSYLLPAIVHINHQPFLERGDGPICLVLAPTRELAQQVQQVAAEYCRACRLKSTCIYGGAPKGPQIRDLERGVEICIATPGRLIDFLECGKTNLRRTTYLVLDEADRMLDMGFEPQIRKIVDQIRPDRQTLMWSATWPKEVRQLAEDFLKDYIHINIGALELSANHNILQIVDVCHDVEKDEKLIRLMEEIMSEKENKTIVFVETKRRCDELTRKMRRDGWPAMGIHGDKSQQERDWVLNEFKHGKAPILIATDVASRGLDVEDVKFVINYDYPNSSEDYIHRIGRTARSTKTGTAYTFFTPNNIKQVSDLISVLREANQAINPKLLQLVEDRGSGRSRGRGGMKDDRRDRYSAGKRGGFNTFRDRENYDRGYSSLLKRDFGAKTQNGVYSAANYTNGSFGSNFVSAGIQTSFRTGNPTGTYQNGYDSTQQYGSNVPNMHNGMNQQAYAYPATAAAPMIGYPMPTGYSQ
UniProt Q92841: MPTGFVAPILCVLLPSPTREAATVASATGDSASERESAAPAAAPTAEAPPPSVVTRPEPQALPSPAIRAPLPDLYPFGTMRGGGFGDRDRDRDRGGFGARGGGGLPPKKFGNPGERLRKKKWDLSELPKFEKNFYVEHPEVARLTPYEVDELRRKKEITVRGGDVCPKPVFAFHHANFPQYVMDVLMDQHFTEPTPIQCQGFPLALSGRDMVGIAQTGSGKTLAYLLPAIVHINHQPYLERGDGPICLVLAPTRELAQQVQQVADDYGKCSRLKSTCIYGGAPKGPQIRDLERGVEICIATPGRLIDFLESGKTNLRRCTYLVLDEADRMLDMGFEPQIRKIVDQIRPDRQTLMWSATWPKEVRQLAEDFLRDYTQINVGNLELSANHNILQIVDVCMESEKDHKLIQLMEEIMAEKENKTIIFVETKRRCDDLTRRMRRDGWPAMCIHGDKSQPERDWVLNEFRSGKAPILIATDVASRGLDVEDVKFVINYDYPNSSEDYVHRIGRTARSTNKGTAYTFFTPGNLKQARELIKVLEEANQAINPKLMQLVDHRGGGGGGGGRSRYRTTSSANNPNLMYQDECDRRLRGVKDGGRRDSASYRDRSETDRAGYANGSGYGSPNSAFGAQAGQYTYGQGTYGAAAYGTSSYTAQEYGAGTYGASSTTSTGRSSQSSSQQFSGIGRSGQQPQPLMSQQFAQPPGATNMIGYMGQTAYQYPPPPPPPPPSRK
UniProt Q07955: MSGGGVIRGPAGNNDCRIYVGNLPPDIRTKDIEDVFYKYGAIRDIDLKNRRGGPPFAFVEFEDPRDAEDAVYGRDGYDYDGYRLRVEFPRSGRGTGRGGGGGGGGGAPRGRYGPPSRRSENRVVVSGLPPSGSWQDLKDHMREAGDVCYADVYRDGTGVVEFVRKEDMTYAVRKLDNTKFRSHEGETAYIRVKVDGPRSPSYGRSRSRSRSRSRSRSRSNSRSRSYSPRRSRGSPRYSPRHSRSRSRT

B1: DDX1 (protein, UniProt Q92499 1-740)
chain: MAAFSEMGVMPEIAQAVEEMDWLLPTDIQAESIPLILGGGDVLMAAETGSGKTGAFSIPVIQIVYETLKDQQEGKKGKTTIKTGASVLNKWQMNPYDRGSAFAIGSDGLCCQSREVKEWHGCRATKGLMKGKHYYEVSCHDQGLCRVGWSTMQASLDLGTDKFGFGFGGTGKKSHNKQFDNYGEEFTMHDTIGCYLDIDKGHVKFSKNGKDLGLAFEIPPHMKNQALFPACVLKNAELKFNFGEEEFKFPPKDGFVALSKAPDGYIVKSQHSGNAQVTQTKFLPNAPKALIVEPSRELAEQTLNNIKQFKKYIDNPKLRELLIIGGVAARDQLSVLENGVDIVVGTPGRLDDLVSTGKLNLSQVRFLVLDEADGLLSQGYSDFINRMHNQIPQVTSDGKRLQVIVCSATLHSFDVKKLSEKIMHFPTWVDLKGEDSVPDTVHHVVVPVNPKTDRLWERLGKSHIRTDDVHAKDNTRPGANSPEMWSEAIKILKGEYAVRAIKEHKMDQAIIFCRTKIDCDNLEQYFIQQGGGPDKKGHQFSCVCLHGDRKPHERKQNLERFKKGDVRFLICTDVAARGIDIHGVPYVINVTLPDEKQNYVHRIGRVGRAERMGLAISLVATEKEKVWYHVCSSRGKGCYNTRLKEDGGCTIWYNEMQLLSEIEEHLNCTISQVEPDIKVPVDEFDGKVTYGQKRAAGGGSYKGHVDILAPTVQELAALEKEAQTSFLHLGYLPNQLFRTF
B2: XRN2 (enzyme, UniProt Q9H0D6 1-950)
chain: MGVPAFFRWLSRKYPSIIVNCVEEKPKECNGVKIPVDASKPNPNDVEFDNLYLDMNGIIHPCTHPEDKPAPKNEDEMMVAIFEYIDRLFSIVRPRRLLYMAIDGVAPRAKMNQQRSRRFRASKEGMEAAVEKQRVREEILAKGGFLPPEEIKERFDSNCITPGTEFMDNLAKCLRYYIADRLNNDPGWKNLTVILSDASAPGEGEHKIMDYIRRQRAQPNHDPNTHHCLCGADADLIMLGLATHEPNFTIIREEFKPNKPKPCGLCNQFGHEVKDCEGLPREKKGKHDELADSLPCAEGEFIFLRLNVLREYLERELTMASLPFTFDVERSIDDWVFMCFFVGNDFLPHLPSLEIRENAIDRLVNIYKNVVHKTGGYLTESGYVNLQRVQMIMLAVGEVEDSIFKKRKDDEDSFRRRQKEKRKRMKRDQPAFTPSGILTPHALGSRNSPGSQVASNPRQAAYEMRMQNNSSPSISPNTSFTSDGSPSPLGGIKRKAEDSDSEPEPEDNVRLWEAGWKQRYYKNKFDVDAADEKFRRKVVQSYVEGLCWVLRYYYQGCASWKWYYPFHYAPFASDFEGIADMPSDFEKGTKPFKPLEQLMGVFPAASGNFLPPSWRKLMSDPDSSIIDFYPEDFAIDLNGKKYAWQGVALLPFVDERRLRAALEEVYPDLTPEETRRNSLGGDVLFVGKHHPLHDFILELYQTGSTEPVEVPPELCHGIQGKFSLDEEAILPDQIVCSPVPMLRDLTQNTVVSINFKDPQFAEDYIFKAVMLPGARKPAAVLKPSDWEKSSNGRQWKPQLGFNRDRRPVHLDQAAFRTLGHVMPRGSGTGIYSNAAPPPVTYQGNLYRPLLRGQAQIPKLMSNMRPQDSWRGPPPLFQQQRFDRGVGAEPLLPWNRMLQTQNAAFQPNQYQMLAGPGGYPPRRDDRGGRQGYPREGRKYPLPPPSGRYNWN

Experiments:
Test in all cases: affinity purification with mass spectrometry
[1] = target: PRMT5 (UniProt O14744)
[2] = target: Flag-DDX5 (human) (UniProt P17844)
[3] = target: Flag-DDX5 (human) (UniProt P17844); remark: listed apart in the source

Row | Molecule | binding [2] | binding [3] | further results
1 | DDX5 (from UniProt P17844 1-614) | – | – | binding [1]: binds
2 | DDX17 (from UniProt Q92841 1-729) | binds | – | –
3 | SRSF1 (from UniProt Q07955 1-248) | binds | – | –
4 | B1 | – | binds | –
5 | B2 | – | binds | –
